In the supplement of paper PMC8007513:
The other results are listed elsewhere or left out. Repeats are few or missing, and single values can be far off.

What follows are compounds tested on Saccharomyces cerevisiae BY4743 (assay: growth (OD600) relative to untreated control; higher = less growth inhibition). Settings: compound concentration: 133 uM; 20 h.
Experimental: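 NMCCC compounds (133 uM, no IPBC) tested alone against Saccharomyces cerevisiae BY4743 in YPD, 96-well plates, starting OD600 ~0.1. Growth was read as OD600 at 20 h and expressed as % of the untreated control. Single pass.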

SMILES	growth [%]
COC(=O)c1cc(NC(=O)c2cc(S(N)(=O)=O)ccc2N2CCOCC2)ccc1F	92.9
Cn1ccc(NC(=O)CCCc2nc(O)c3ccccc3n2)n1	106
Cc1cc(C)nc(NS(=O)(=O)c2ccc(-n3cnnn3)cc2)n1	98.6
CC(C)(C)NS(=O)(=O)c1ccc(C(=O)NCC(=O)N2CCc3ccccc32)cc1	102
Cc1ccc(Cl)cc1N1CCN(CCNS(=O)(=O)c2csc(C(N)=O)c2)CC1	107
CC(C)(C)c1cc(N)n(-c2ccc(C(=O)O)cc2)n1	105
CCn1c(SCc2cc(C)on2)nnc1C1CC1	102
Cn1c(Cc2nnn(Cc3ccc(Cl)cc3Cl)n2)nnc1SCC#N	105
CC(C)CN1\C=C(\NC(=O)NCC2CCCO2)C3=CC=CC=C3C1=O (centres undefined)	108
CCOC(=O)C(Sc1nnc(C(F)(F)F)n1C)c1ccccc1 (centres undefined)	106
CCOc1ccc(CNC(=O)CC(c2ccccc2C)n2cccc2)cc1OC (centres undefined)	106
Cc1cc(COC(=O)c2ccccc2NC(=O)c2ccsc2)no1	80
CN(CCOC1=CC=CC=C1)[S](=O)(=O)\C2=C\N(C)C(=O)N(C)C2=O	102
CCOC(=O)C1Sc2nnc(C(F)(F)F)n2NC1c1ccccc1 (centres undefined)	90.3
Cc1nc(C)c(CCC(=O)Nc2ccnn2Cc2ccc(C(F)(F)F)cc2)c(O)n1	122
CC(C)NC(=O)NCCc1nc2cccnc2n1-c1ccccc1	102
CC(c1cccnc1)N(C(=O)Nc1ccc(Cl)cc1)C1CCCCC1 (centres undefined)	97
CCOc1ccc(CC(=O)Nc2ccc3nc(NC(C)=O)sc3c2)cc1OCC	114
COc1ccc(CCNC(=O)C2CCC(=O)N2S(=O)(=O)c2ccc(C)cc2)cc1 (centres undefined)	101
CN(Cc1cnn(Cc2ccccc2)c1)C(=O)c1cc(Cl)ccc1Cl	96.4

SMILES	growth [%]
CCOC(=O)C1CCN(C(=O)CCS(=O)(=O)c2ccc3c(c2)CC(C)N3C(=O)CC)CC1 (centres undefined)	92.5
COc1ccccc1C(=O)NCCc1nc2cc(NC(=O)CC(C)C)ccc2n1C	103
COC1=CC=C(CCC2CCN(CC2)CN3\C=C(Br)/C=C\C3=O)C=C1	89.7
CCn1c(CN2CCCCCC2=O)nnc1SCC(=O)NCC(C)C	99.7
Cc1cc(N)n(S(=O)(=O)c2cn(C)nc2C)n1	108
COCC(=O)Nc1nc2nc(-c3ccccc3)cc(O)n2n1	99.9
O=C(O)c1nnn(-c2ccccc2Cl)c1-c1ccncc1	97.4
CCO/C(O)=C1\C(C)=NC2=C(C(=O)CC(C)(C)C2)C1c1cc(Cl)ccc1F (centres undefined)	103
CC(=O)c1ccc(S(=O)(=O)NCc2csc(-c3ccccc3)n2)cc1	90.7
O=C(NCc1ccco1)C1(S(=O)(=O)c2ccccc2)CCCC1	108
O=C(CCn1c(=O)oc2ccccc21)OC1CCCCC1=O (centres undefined)	103
Cn1ccc(S(=O)(=O)N2CCC(C(=O)Nc3ccccc3OCC(F)(F)F)CC2)c1	108
Cc1cccc(-n2ccnc2SCC(=O)Nc2ccccc2S(=O)(=O)C(F)F)c1	101
COc1ccc(N(CCC(N)=O)CC(=O)NC(C)c2ccc3c(c2)OCO3)cc1 (centres undefined)	107
O=C(CNC(=O)c1ccccc1)NN1S(=O)(=O)c2ccccc2S1(=O)=O	98.6
NCCc1c(-c2ccccc2)nn(-c2ccccc2)c1O	111
CC(C)C[C@@H](C(=O)Nc1cccnc1)N1Cc2ccccc2C1=O	106
CCOc1ccc(NC(C)=O)cc1S(=O)(=O)N1CC(C(=O)N(C)C)Oc2ccccc21 (centres undefined)	120
COC(=O)c1ccccc1S(=O)(=O)NCc1nc2nc(C)cc(C)n2n1	105

Individual results from the entries so far:
Entry for `CC(C)C[C@@H](C(=O)Nc1cccnc1)N1Cc2ccccc2C1=O` under growth [%]: 106
Entry for `CC(=O)c1ccc(S(=O)(=O)NCc2csc(-c3ccccc3)n2)cc1` under growth [%]: 90.7
